Assay results taken from paper PMC8571718.
No constants are given. Whether binding was seen depends on the method and setting. Binding seen in cells or lysates may run through a third protein. Some results given as binding are weak or reduced against the parent protein; the word gives no strength.

Amino acid sequences for entries named in this document (tags omitted). Residues count along the entry.
UniProt P61073: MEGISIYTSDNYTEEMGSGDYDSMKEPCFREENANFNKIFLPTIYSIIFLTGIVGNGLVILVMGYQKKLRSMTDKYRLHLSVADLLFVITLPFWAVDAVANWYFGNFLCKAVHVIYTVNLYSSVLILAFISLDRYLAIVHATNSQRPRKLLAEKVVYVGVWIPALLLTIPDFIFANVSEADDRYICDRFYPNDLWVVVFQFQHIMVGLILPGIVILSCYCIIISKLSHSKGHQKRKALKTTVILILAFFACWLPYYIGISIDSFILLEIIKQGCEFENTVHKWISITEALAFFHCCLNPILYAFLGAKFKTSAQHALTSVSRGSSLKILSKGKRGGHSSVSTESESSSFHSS
UniProt P07766, residues 23-207: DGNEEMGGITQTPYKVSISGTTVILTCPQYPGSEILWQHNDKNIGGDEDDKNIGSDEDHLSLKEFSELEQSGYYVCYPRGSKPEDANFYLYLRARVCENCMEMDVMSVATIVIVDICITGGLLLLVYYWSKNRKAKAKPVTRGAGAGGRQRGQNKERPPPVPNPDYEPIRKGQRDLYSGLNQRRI

Target: CXCR4 (human (endogenous in Jurkat)) (UniProt P61073)
Experiment: FRET or BRET; Jurkat CD4 T cells labelled on ice with PE-anti-CXCR4 (12G5) and APC-anti-CD2 (RPA-2.10) or APC-anti-CD3ε (UCHT1); 37°C 30 min with or without 500 ng HIV(NL4-3) viral particles; cold acid wash (pH 2.0) to remove surface antibodies; intracellular FRET read by flow cytometry (FACSCalibur)

binding: binds
Substance: CD3ε chain (from UniProt P07766 23-207) (receptor)
